In the test the test system is BDF1 mice, P388 leukemia ip, median survival T/C. Description: NCI In Vivo Anticancer Drug Screen. Data for tumor model P388 Leukemia (intraperitoneal) in B6D2F1 (BDF1) mice. To be noted: T/C endpoint: median survival time, higher T/C = longer survival. As to the method: The antitumor activity of compounds was measured in mice bearing transplantable tumors. Survival or tumor size were measured and the results are expressed as the measurement made in the treated group (T) divided by the measurement made in the vehicle treated control group (C). The tumor model used in this assay is P388 Leukemia (intraperitoneal) in B6D2F1 (BDF1) mice

The mark [1] stands for this setting: dose: 6.25 mg/kg/injection, schedule: Q01DX009 (ip), vehicle: saline.
[2] abbreviates: dose: 12.5 mg/kg/injection, schedule: Q01DX001 (ip), vehicle: saline.
[3] abbreviates: dose: 12.5 mg/kg/injection, schedule: Q01DX009 (ip), vehicle: saline.
Where [4] appears, read: dose: 25.0 mg/kg/injection, schedule: Q01DX001 (ip), vehicle: saline.
The mark [5] stands for this setting: dose: 25.0 mg/kg/injection, schedule: Q01DX009 (ip), vehicle: saline.
Where [6] appears, read: dose: 25.0 mg/kg/injection, schedule: Q04DX003 (ip), vehicle: saline.
Where [7] appears, read: dose: 25.0 mg/kg/injection, schedule: Q08DX002 (ip), vehicle: saline.
The mark [8] stands for this setting: dose: 50.0 mg/kg/injection, schedule: Q01DX001 (ip), vehicle: saline.
Setting [9] is: dose: 50.0 mg/kg/injection, schedule: Q01DX009 (ip), vehicle: saline.
Where [10] appears, read: dose: 50.0 mg/kg/injection, schedule: Q04DX003 (ip), vehicle: saline.
[11] abbreviates: dose: 50.0 mg/kg/injection, schedule: Q08DX002 (ip), vehicle: saline.
Where [12] appears, read: dose: 100.0 mg/kg/injection, schedule: Q01DX001 (ip), vehicle: saline.
The mark [13] stands for this setting: dose: 100.0 mg/kg/injection, schedule: Q04DX003 (ip), vehicle: saline.
Where [14] appears, read: dose: 100.0 mg/kg/injection, schedule: Q08DX002 (ip), vehicle: saline.
Where [15] appears, read: dose: 200.0 mg/kg/injection, schedule: Q01DX001 (ip), vehicle: saline.
Where [16] appears, read: dose: 200.0 mg/kg/injection, schedule: Q04DX003 (ip), vehicle: saline.
Setting [17] is: dose: 200.0 mg/kg/injection, schedule: Q08DX002 (ip), vehicle: saline.

The structures appear in SMILES notation. The list is a part of this screen's results and no random one: its compounds were picked by chemical class. Other doses and runs of a compound may be missing. T/C gives the treated animals as a percentage of the vehicle group. Some doses have a count of surviving animals in place of a T/C: the source files T/C as zero there, which appears to mark a toxic dose or a test without result, not a measured value. Some survivor counts are full or nearly so, which does not show that the dose was tolerated: the source hardly ever lists a survival T/C far under the control, and the zero likely stands for such cases as well. Counts of survivors are from the toxicity check (mostly the fifth day) where no day follows; animals may have died later. Schedules are NCI's codes, read here as Q, the interval in days (D) or hours (H), X, the number of doses. Where survival is the endpoint, this PubChem deposit counts one and a half times the control or more as active, and values a quarter to a half above the control carry no call in these data; other NCI protocols may use other cut-offs. Brackets with × stand for listed records that agree. Some T/C values are followed by the survivors on the day toxicity was checked, most often the fifth; where neither a count nor a note follows, no animal had died by that day. Some doses were run more than once; the results are listed from low to high. Some T/C values are marked as having no survivor count here; that says nothing about deaths at the dose.

`NC1CCCCC1.O=P(O)(N(CCCl)CCCl)N1CC1`: the T/C runs as follows: (dose: 1.25 mg/kg/injection, schedule: Q01DX010 (ip), vehicle: saline) 163 % of control; (dose: 2.5 mg/kg/injection, schedule: Q01DX010 (ip), vehicle: saline) 177 and 186 % of control; (dose: 3.13 mg/kg/injection, schedule: Q01DX009 (ip), vehicle: saline) 256 % of control; (dose: 5.0 mg/kg/injection, schedule: Q01DX010 (ip), vehicle: saline) 195 and 218 % of control; under setting [1], 256 % of control; (dose: 10.0 mg/kg/injection, schedule: Q01DX010 (ip), vehicle: saline) 250 and 259 % of control. The T/C was 141 % of control under setting [2]; 181 % of control under setting [3]; 232 % of control (dose: 12.5 mg/kg/injection, schedule: Q04DX003 (ip), vehicle: saline); 218 % of control (dose: 12.5 mg/kg/injection, schedule: Q08DX002 (ip), vehicle: saline); 300 % of control (dose: 20.0 mg/kg/injection, schedule: Q01DX010 (ip), vehicle: saline); 179 % of control under setting [4]. For the same compound, the T/C is 258 % of control under setting [6]; 252 % of control under setting [7]; 262 % of control under setting [8]; 88 % of control under setting [10]; 271 % of control under setting [11]; 119 % of control under setting [14]. Moreover, the survivor count reads like this: under setting [5], 6 of 6; under setting [9], 6 of 6; under setting [12], 6 of 6; under setting [13], 4 of 6; under setting [15], 5 of 6; under setting [16], 0 of 6. The survivor count under setting [17] was 2 of 6.
Turning to `C[N+](CCCl)(CCCl)Cc1ccccc1`, the T/C was 100 % of control under setting [2]; 100 % of control under setting [4]; 109 % of control under setting [6]; 108 % of control under setting [8]; 90 % of control under setting [10].
Turning to `CC(=O)OC(SC(OC(C)=O)C(Cl)(Cl)Cl)C(Cl)(Cl)Cl` (configuration not stated), the T/C by setting is: (dose: 100.0 mg/kg/injection, schedule: Q04DX003 (ip), vehicle: gum acacia) 120 % of control; (dose: 133.0 mg/kg/injection, schedule: Q04DX003 (ip), vehicle: gum acacia) 130 % of control [5 of 6 alive]; (dose: 200.0 mg/kg/injection, schedule: Q04DX003 (ip), vehicle: gum acacia) 140 % of control (2×); (dose: 300.0 mg/kg/injection, schedule: Q04DX003 (ip), vehicle: gum acacia) 150 % of control; (dose: 400.0 mg/kg/injection, schedule: Q04DX003 (ip), vehicle: gum acacia) 135 % of control.
As for `CC(=O)Nc1ccc(N(CCCl)CCCl)cc1C`, the T/C by setting is: (dose: 12.5 mg/kg/injection, schedule: Q01DX001 (ip), vehicle: Klucel (hydroxypropylcellulose) (HPC)) 129 % of control; (dose: 25.0 mg/kg/injection, schedule: Q01DX001 (ip), vehicle: Klucel (hydroxypropylcellulose) (HPC)) 148 % of control; (dose: 50.0 mg/kg/injection, schedule: Q01DX001 (ip), vehicle: Klucel (hydroxypropylcellulose) (HPC)) 201 % of control [5 of 6 alive].
For `CC(C)OP(C)(O)=S.CC(N)c1ccccc1` (configuration not stated), the T/C was 94 % of control (dose: 50.0 mg/kg/injection, schedule: Q01DX005 (ip), vehicle: saline); 101 % of control (dose: 100.0 mg/kg/injection, schedule: Q01DX005 (ip), vehicle: saline); 101 % of control (dose: 200.0 mg/kg/injection, schedule: Q01DX005 (ip), vehicle: saline).
With `NP(=O)(N(CCCl)CCCl)N1CC1` (configuration not stated), the T/C was 189 % of control under setting [1]; 224 % of control under setting [3]; 130 % of control under setting [4]; 137 % of control under setting [5]; 226 % of control under setting [6]; 241 % of control under setting [7]. In addition, the T/C runs as follows: under setting [8], 168 % of control; under setting [10], 140 % of control; under setting [11], 216 % of control; under setting [12], 150 % of control. For the same compound, the survivor count is 6 of 6 under setting [9]; 5 of 6 (dose: 100.0 mg/kg/injection, schedule: Q01DX009 (ip), vehicle: saline); 5 of 6 under setting [13]; 5 of 6 under setting [14]; 2 of 6 under setting [15]; 0 of 6 under setting [16]. Moreover, the survivor count is recorded as 1 of 6 under setting [17]; 0 of 6 (dose: 400.0 mg/kg/injection, schedule: Q01DX001 (ip), vehicle: saline); 0 of 6 (dose: 400.0 mg/kg/injection, schedule: Q04DX003 (ip), vehicle: saline); 0 of 6 (dose: 400.0 mg/kg/injection, schedule: Q08DX002 (ip), vehicle: saline).
With `O=NN1CCN/C1=N\[N+](=O)[O-]`, the T/C is 112 % of control (dose: 50.0 mg/kg/injection, schedule: Q01DX009 (ip), vehicle: Klucel (hydroxypropylcellulose) (HPC)); 145 % of control (dose: 98.0 mg/kg/injection, schedule: Q01DX009 (ip), vehicle: Klucel (hydroxypropylcellulose) (HPC)); 120 % of control (dose: 100.0 mg/kg/injection, schedule: Q01DX009 (ip), vehicle: Klucel (hydroxypropylcellulose) (HPC)); 190 % of control (dose: 132.0 mg/kg/injection, schedule: Q01DX009 (ip), vehicle: Klucel (hydroxypropylcellulose) (HPC)); 122 % of control (dose: 147.0 mg/kg/injection, schedule: Q01DX009 (ip), vehicle: Klucel (hydroxypropylcellulose) (HPC)); 133 and 175 % of control [5 of 6 alive] (dose: 200.0 mg/kg/injection, schedule: Q01DX009 (ip), vehicle: Klucel (hydroxypropylcellulose) (HPC)). The survivor count is recorded as 3 of 6 (dose: 220.0 mg/kg/injection, schedule: Q01DX009 (ip), vehicle: Klucel (hydroxypropylcellulose) (HPC)) and 1 of 6 (dose: 300.0 mg/kg/injection, schedule: Q01DX009 (ip), vehicle: Klucel (hydroxypropylcellulose) (HPC)).
Take `Nc1ccc(N(CCCl)CCCl)cc1`: the T/C is, setting by setting: (dose: 0.05 mg/kg/injection, schedule: Q01DX009 (ip), vehicle: saline) 91 % of control [4 of 6 alive]; (dose: 0.07 mg/kg/injection, schedule: Q01DX009 (ip), vehicle: saline) 102 % of control; (dose: 0.11 mg/kg/injection, schedule: Q01DX009 (ip), vehicle: saline) 117 % of control; (dose: 0.16 mg/kg/injection, schedule: Q01DX009 (ip), vehicle: saline) 97 % of control; (dose: 0.32 mg/kg/injection, schedule: Q01DX009 (ip), vehicle: saline) 135 % of control.
Turning to `C1CCCC2NC2CC1.O=[N+]([O-])c1cc([N+](=O)[O-])c(O)c([N+](=O)[O-])c1`, the T/C (dose: 50.0 mg/kg/injection, schedule: Q04DX003 (ip), vehicle: saline with Tween-80) was 109 % of control [survivor count not shown]; the T/C (dose: 100.0 mg/kg/injection, schedule: Q04DX003 (ip), vehicle: saline with Tween-80) was 109 % of control [survivor count not shown]; the T/C (dose: 200.0 mg/kg/injection, schedule: Q04DX003 (ip), vehicle: saline with Tween-80) is 109 % of control [survivor count not shown].

For the origin of these results see PubChem BioAssay AID328 (DTP/NCI, 2004).
